Assay: Antiproliferative activity against human MDA-MB-435 cells by SRB assay

COc1cc2c(c(OC)c1OC)-c1ccc(OC)c(=O)cc1[C@@H](NC(C)=O)CC2 [COLCHICINE]
IC50: 16 nM
